Source: PubChem BioAssay AID602196 (INSERM, 2012)
This is an unselected part of about 23,000 reagents. In the full data, 455 (2%) were called active. 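Active includes both protection and sensitisation; some change values fall well beyond the stated -50 to +50 range.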 Unmarked entries are inactive. Reagents against one gene are numbered here. Not stated in the record: the amount of reagent.

Screen: 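Knock-downs that protect lung cancer cells from cisplatin or sensitise them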
Cells: human A549 lung cancer cells
Knock-down reagent: siRNA pair against human genes
Timing: 48 h transfection before cisplatin; time from cisplatin to read-out not stated
Treatment: cisplatin at a dose killing half of control-siRNA cells; exact dose and duration not given
Detection: 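Cisplatin cell death as a shift from the 50% death seen with control siRNA; siRNAs toxic or growth-blocking alone scored 0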
Direction: two-siRNA summed score (-2 to +2): higher = both siRNAs protect from cisplatin killing; -2 means both sensitise; mean protection from cisplatin (shift in death) and protection from cisplatin (shift in death), siRNA C and protection from cisplatin (shift in death), siRNA D: higher = protection from cisplatin killing
Rule for the call: 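siRNAs harmful alone (LDH or WST-1) get 0; others get +1 for less and -1 for more cisplatin killing; genes are active when the two siRNAs give the same sign, summing to ±2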
Meaning of the calls: active = both siRNAs shift cisplatin killing the same way; inactive = no consistent shift, or siRNA harmful alone

| Target gene | reagent no. | two-siRNA summed score (-2 to +2) | mean protection from cisplatin (shift in death) (%) | protection from cisplatin (shift in death), siRNA C (%) | protection from cisplatin (shift in death), siRNA D (%) |
| --- | --- | --- | --- | --- | --- |
| TMEM70 | 1 | 0 | 2 | -11.3 | 15.4 |
| HLA-DMB | 1 | 0 | 8.6 | 14.6 | 2.6 |
| QTRT2 | 1 | 0 | -0.2 | -6.2 | 5.9 |
| ETV4 | 1 | 0 | 3.6 | 4.4 | 2.8 |
| GIMAP5 | 1 | 0 | -2.9 | 0.5 | -6.3 |
| PNPLA6 | 1 | 1 | 20.1 | 11.5 | 28.7 |
| MFF | 1 | 0 | 11.1 | 6.4 | 15.9 |
| NCOR2 | 1 | 0 | -5.1 | 1.9 | -12.1 |
| MRPS14 | 1 | 1 | 15.5 | 20 | 11.1 |
| AMHR2 | 1 | 0 | -3.2 | -6.7 | 0.2 |
| ACADVL | 1 | 0 | -1 | 12.6 | -14.6 |
| DMRT1 | 1 | -1 | -23.3 | -20.6 | -25.9 |
| MRPL53 | 1 | 0 | 5.6 | 4.1 | 7 |
| ODAD3 | 1 | -1 | -12.4 | -19 | -5.8 |
| LOC441850 | 1 | 0 | 12 | 6.4 | 17.5 |
| WASHC5 | 1 | 0 | 1.6 | -2.7 | 5.9 |
| LOC389749 | 1 | 0 | 2.8 | -1.1 | 6.8 |
| PALM2AKAP2 | 1 | 0 | -4.3 | -2.8 | -5.8 |
| PALM2AKAP2 | 2 | 0 | -3.4 | -5.8 | -1 |
| PALM2AKAP2 | 3 | 0 | 0.7 | -7 | 8.3 |
| USP22 | 1 | 0 | 9.1 | 14.1 | 4.1 |
| EIF2A | 1 | 0 | 2.7 | 5.5 | 0 |
| APPL1 | 1 | 0 | -0.1 | -12.2 | 12 |
